Laboratory results reported in patent publication US20110171231A1 (published 2011).
Results are given in words; binding and its absence hold for the method and conditions named. Some entries that bind do so weakly or less than the wild type.

Experiments:
[1] = molecular target: T1, recombinant mouse PlGF-2 (mouse, UniProt P49764 24-158, limits assumed); assay: Biacore, anti-mouse Fc chip (FIG. 5B)
T1 sequence (looked up): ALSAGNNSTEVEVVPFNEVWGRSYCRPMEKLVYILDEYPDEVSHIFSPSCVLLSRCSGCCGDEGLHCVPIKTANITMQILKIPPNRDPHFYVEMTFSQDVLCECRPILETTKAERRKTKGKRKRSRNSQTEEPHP

[2] = molecular target: T2, human PlGF-2 (human, UniProt P49763-3 19-170); assay: Biacore, anti-mouse Fc chip (FIG. 5B)
T2 construct: Panning used human PlGF residues 19-116 and human PlGF-1; also called hPlGF-2; hPlGF
T2 sequence (looked up): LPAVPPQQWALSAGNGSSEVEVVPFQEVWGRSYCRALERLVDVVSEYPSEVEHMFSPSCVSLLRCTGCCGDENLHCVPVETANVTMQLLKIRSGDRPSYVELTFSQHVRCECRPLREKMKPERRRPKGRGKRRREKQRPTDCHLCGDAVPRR

[3] = molecular target: T1, recombinant mouse PlGF-2; assay: competition ELISA on murine PlGF coated plates
[4] = molecular target: T1, recombinant mouse PlGF-2; assay: competition ELISA on mPlGF-coated plate; blocked ligand: biotinylated NRP-1-Fc
[5] = molecular target: T1, recombinant mouse PlGF-2; assay: competition ELISA on mPlGF-coated plate; blocked ligand: biotinylated NRP-2
Description: The ability of the anti-PlGF Mabs C9.V2 and 7A10 to block the interaction between PlGF and its co-receptors NRP-1 and NRP-2 (Gluzman-Poltorak et al., 2000; Mamluk et al., 2002) was also tested. For PlGF/NRP1 and PlGF/NRP2 competition binding assays, Microtiter plates (Nunc, Rochester, N.Y., USA) were coated with recombinant mouse PlGF (BioVision, Mountain View, Calif., USA) either at 2 μg/mL (for PlGF/NRP1 binding) or at 4 ug/mL (for PlGF/NRP2 binding) in PBS. After an overnight incubation at 4° C., assay plates were washed with wash buffer (PBS/0.05% Tween 20) and treated with block buffer (PBS/0.5% BSA) for 1 to 2 hours. Samples were serially diluted in sample diluent (PBS/0.5% BSA/15 ppm Proclin/0.05% Tween 20/0.2% BGG/0.25% CHAPS/5 mM EDTA/0.3 M NaCl, pH7.4) containing 0.25 ug/mL of heparin (Sigma, St. Louis, Mo., US) and incubated in the presence of either 100 ng/mL of biotin-mouse
NRP1-Fc (0.66 nM for PlGF/NRP1 binding) or 425 ng/mL of biotin-NRP2-Fc (6 nM for PlGF/NRP2-binding). After incubation for 2 hours, assay plates were washed 6 times with wash buffer and then incubated for 45 to 60 minutes with AMDEX streptavidin-HRP (GE Healthcare, Pittsburgh, Pa., USA) diluted 10,000 folds in assay buffer (PBS/0.5% BSA/0.05% Tween 20, pH7.4). […] Absorbance was measured at 450 nm against a reference wavelength of 620 nm.

Measured: binding

B1: anti-PlGF monoclonal antibody C9.V2 (antibody, mouse IgG2a, V domains shown)
VH: EVQLVESGGGLVQPGGSLRLSCAASGFTFTNTWISWVRQAPGKGLEWVGSITPANGYTNYADSVKGRFTISADTSKNTAYLQMNSLRAEDTAVYYCARAVYPWFFAYWGQGTLVTVSS
VL: DIQMTQSPSSLSASVGDRVTITCRASQYVSHAVAWYQQKPGKAPKLLIYSASFLYSGVPSRFSGSGSGTDFTLTISSLQPEDFATYYCQSAYTPPTTFGQGTKVEIK
notes: also called C9v2.9; anti-PlGF MAb C9v2
binds: [1] | [2] | [3] | [4] | [5]
